Experiment: Chlorite, chlorate and chloride residuals in thin juice samples
Settings: 20 ppm chlorine dioxide introduced into the thin juice line

[O][Cl+][O-] [chlorine dioxide]
chlorate residuals: not detected | chloride concentrations: within the same range as baseline | chlorite residuals: not detected

From patent US20100143506A1, “APPARATUS AND METHOD FOR TREATMENT OF MICROORGANISMS DURING SUGAR PRODUCTION AND SUGAR-BASED FE[…]” (priority 2008, published 2010)
